Some entries share one result that the patent states for a list of compounds.
Legend:
Enterobacteria = Enterobacteria in cooked emulsified sausage; format: cell-based
Pseudomonas = Pseudomonas in cooked emulsified sausage; format: cell-based, Pseudomonas sp.
ASR = ASR (sulfito-reducing bacteria) in cooked emulsified sausage; format: cell-based

lactate
< 10 ufc/g: Enterobacteria count (Enterobacteria) | Pseudomonas count (Pseudomonas) | ASR count (ASR)
